Laboratory results: patent US20060019907A1, “Guggulsterone: an inhibitor of nuclear factor - kappaB and IkappaBalpha kinase activation and uses thereof” (Research Development Foundation, priority 2004, published 2006)
For at least one compound, name, drawing or mass did not settle the structure.

Test system: caspase 8, cytochrome c, caspase 3, PARP
Test: Caspase activation, cytochrome c release and PARP cleavage, Western blot
Format: cell-based, human
Conditions: U937, then 10 μM guggulsterone
Method: Western blot analysis. Thirty to fifty micrograms of cytoplasmic, nuclear or whole cell protein was resolved on 10% SDS-PAGE gel, transferred to a nitrocellulose membrane, blocked with 5% non-fat milk, and probed with specific antibodies as per manufacturer's recommended protocol. The blots were washed, exposed to HRP-conjugated secondary antibodies for 1 h, and detected by ECL reagent (Amersham Pharmacia Biotechnology, Piscataway, N.J.). The bands were quantitated using a Personal Densitometer Scan v1.30 using Imagequant software version 3.3 (Molecular Dynamics).
Measurement of cytochrome c release. To determine the effect of guggulsterone on cytochrome c release, cells were treated with guggulsterone as indicated and then the cytosolic extracts were prepared as described (Yang, 1997). Briefly, the cells were washed with PBS, resuspended in the buffer containing 0.25 M sucrose, 30 mM Tris-HCl (pH 7.9), 1 mM EDTA, 1 mM PMSF, 2 mM sodium orthovanadate, 10 mM NaF, 2 μg/ml leupeptin, and 2 μg/ml aprotinin and then homogenized gently with a glass Dounce homogenizer for 20 strokes. The homogenates were centrifuged at 2000 rpm for 10 min to remove nuclei, and the supernatants were centrifuged at 14,000 rpm for 30 min to remove mitochondria and other insoluble fragments. The supernatants were again centrifuged as above to ensure complete removal of mitochondria. […]

`Oc1c2ccccc2c2c3c(cccc13)N=N2` [SP600125, reference compound] was tested, and the “guggulsterone-induced caspase 3 activation after JNK inhibitor pretreatment” value (10 μM SP600125 for 1 h) was “blocks caspase 3 activation” and the “guggulsterone-induced PARP cleavage after JNK inhibitor pretreatment” value (SP600125 for 1 h) was “blocks PARP cleavage”.
